Experimental findings from PMC12297659, “In situ structure of the mouse sperm central apparatus reveals mechanistic insights into asthenozoospermia” (Cell Research, 2025) are described below.

Chains of the proteins cited; added tags and fusions are not shown.
UniProt Q3V0B4: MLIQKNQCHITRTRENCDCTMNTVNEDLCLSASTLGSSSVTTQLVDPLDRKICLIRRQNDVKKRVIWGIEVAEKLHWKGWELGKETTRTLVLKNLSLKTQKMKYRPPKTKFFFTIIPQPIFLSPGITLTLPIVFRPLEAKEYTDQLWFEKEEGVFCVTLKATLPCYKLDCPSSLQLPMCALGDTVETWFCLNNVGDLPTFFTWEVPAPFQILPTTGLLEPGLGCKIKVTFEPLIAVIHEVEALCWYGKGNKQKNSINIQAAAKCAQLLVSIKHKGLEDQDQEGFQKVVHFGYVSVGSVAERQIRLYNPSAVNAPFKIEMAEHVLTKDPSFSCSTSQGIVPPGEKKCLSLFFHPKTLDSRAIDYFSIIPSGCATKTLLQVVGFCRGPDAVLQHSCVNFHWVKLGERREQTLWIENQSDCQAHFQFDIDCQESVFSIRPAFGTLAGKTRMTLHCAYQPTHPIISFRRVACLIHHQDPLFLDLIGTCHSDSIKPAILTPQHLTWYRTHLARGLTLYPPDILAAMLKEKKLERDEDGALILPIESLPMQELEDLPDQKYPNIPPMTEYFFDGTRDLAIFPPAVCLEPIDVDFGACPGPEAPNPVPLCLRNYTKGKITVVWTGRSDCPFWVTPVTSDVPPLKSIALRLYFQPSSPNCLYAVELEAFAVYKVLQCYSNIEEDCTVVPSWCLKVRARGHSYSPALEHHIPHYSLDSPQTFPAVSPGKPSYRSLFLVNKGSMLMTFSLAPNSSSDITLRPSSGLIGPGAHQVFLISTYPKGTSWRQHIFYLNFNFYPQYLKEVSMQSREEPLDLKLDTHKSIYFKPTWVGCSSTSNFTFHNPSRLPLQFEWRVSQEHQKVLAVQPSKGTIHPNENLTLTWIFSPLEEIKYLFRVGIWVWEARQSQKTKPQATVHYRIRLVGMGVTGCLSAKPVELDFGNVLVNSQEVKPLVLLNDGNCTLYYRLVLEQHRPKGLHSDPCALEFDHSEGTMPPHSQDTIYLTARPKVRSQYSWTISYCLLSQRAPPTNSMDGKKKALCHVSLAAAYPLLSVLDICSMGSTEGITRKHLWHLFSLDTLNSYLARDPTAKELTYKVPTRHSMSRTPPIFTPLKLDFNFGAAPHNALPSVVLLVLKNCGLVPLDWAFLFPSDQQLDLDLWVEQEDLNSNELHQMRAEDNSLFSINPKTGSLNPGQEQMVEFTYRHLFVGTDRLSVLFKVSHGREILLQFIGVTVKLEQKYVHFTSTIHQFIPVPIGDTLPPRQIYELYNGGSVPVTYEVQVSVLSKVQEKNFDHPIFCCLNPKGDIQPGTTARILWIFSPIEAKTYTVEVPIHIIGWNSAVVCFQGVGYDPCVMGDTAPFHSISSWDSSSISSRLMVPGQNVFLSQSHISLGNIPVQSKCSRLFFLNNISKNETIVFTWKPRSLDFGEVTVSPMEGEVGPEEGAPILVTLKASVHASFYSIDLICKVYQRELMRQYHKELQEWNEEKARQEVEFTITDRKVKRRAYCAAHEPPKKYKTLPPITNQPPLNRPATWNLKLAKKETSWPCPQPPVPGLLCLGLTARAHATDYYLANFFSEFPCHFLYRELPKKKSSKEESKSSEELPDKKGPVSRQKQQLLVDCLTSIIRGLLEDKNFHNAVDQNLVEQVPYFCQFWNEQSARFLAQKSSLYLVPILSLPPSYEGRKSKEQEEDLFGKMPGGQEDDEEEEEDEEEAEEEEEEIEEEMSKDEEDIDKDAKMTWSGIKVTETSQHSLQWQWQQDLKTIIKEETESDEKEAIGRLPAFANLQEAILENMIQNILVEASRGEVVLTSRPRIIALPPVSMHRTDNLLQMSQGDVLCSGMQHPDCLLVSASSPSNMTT

Holding throughout (experiment): cryo-EM structure; in situ cryo-electron tomography with subtomogram averaging of about 200 nm cryo-FIB lamellae of wild-type mouse sperm; local maps of 5.5 Å to 18 Å; AlphaFold2 models fitted into the density
Test [1] has as its target CFAP47 (mouse (endogenous in sperm)).
The target of test [2] is HYDIN (mouse (endogenous in sperm)) (UniProt Q80W93).
Test [3] addresses T1, KIF9 (mouse (endogenous in sperm)) (UniProt Q9WV04).
T1 sequence: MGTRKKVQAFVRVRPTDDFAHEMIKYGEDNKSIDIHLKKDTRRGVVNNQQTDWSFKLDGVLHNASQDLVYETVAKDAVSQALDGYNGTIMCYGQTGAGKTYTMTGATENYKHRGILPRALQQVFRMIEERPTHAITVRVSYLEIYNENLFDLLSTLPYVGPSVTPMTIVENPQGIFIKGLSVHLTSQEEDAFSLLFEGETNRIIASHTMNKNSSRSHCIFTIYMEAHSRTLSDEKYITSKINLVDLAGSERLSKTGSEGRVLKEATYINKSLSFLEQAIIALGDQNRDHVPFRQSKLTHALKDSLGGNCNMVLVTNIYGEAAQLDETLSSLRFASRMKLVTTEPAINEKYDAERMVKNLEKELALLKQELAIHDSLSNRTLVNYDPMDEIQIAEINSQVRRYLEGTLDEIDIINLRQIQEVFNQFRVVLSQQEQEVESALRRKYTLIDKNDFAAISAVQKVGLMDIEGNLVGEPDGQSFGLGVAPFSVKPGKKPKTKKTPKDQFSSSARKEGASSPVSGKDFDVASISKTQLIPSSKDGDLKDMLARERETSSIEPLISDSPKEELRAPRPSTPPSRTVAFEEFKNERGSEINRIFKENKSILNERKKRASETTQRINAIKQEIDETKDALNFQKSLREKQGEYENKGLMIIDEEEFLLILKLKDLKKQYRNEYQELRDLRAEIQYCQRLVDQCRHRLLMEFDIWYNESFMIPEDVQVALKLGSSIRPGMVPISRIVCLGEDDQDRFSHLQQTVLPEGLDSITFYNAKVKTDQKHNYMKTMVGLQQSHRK

For test [4], the target named is T2, FAM228B (mouse (endogenous in sperm)) (UniProt Q497Q6).
T2 sequence: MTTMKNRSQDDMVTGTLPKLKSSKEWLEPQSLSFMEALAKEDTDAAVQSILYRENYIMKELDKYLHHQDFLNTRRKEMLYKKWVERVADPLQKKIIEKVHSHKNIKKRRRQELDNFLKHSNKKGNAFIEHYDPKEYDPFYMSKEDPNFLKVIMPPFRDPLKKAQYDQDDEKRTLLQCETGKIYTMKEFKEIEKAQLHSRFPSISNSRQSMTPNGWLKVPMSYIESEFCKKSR

Test [5] concerns the target T3, CFAP20 (mouse (endogenous in sperm)) (UniProt Q8BTU1).
T3 sequence: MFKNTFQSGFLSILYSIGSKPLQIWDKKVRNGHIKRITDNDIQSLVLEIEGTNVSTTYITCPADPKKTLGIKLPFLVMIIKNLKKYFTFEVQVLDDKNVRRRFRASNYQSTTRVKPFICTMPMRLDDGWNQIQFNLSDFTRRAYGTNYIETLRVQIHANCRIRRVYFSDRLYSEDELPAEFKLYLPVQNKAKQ

Test [6] deals with T4, SPAG16 (mouse (endogenous in sperm)) (UniProt Q8K450).
T4 sequence: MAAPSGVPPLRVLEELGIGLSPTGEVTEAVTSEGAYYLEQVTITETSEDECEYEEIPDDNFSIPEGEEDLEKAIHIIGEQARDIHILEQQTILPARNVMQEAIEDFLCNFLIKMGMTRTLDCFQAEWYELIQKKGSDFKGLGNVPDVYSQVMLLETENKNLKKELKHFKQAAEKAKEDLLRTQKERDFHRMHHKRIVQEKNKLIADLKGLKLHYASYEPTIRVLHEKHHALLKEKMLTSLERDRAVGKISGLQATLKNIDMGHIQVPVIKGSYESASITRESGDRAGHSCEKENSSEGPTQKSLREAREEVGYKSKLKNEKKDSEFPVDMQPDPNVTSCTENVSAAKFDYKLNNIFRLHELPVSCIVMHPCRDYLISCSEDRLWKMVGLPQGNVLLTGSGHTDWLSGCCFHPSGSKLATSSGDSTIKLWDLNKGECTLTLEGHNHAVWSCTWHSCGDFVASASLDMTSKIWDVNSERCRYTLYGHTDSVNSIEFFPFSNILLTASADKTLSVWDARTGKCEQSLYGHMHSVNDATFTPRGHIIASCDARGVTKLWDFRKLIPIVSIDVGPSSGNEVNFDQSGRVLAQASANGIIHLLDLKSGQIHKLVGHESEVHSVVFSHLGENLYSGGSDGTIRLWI

In test [7] the target is HYDIN (mouse (endogenous in sperm)) (UniProt Q80W93). This is another data set of the same source.

Like-named read-outs stand apart in the source and are kept apart here. Results are given in words; binding and its absence hold for the method and conditions named. Some results given as binding are weak or reduced against the parent protein; the word gives no strength.

HYDIN (from UniProt Q80W93 1-5154): the binding result in test [1], in test [2] and in test [3] was “binds” in each case.
In the case of CFAP65 (from UniProt Q3V0B4 1-1847), the binding entry in test [4], in test [5] and in test [6] was “binds” in each case.

B1: MAP1S (protein, UniProt Q8C052 1-973)
chain: MAAVMAAPEAVEAPSSLLLLVVGGECGCPGLLAYVMEELERGVRSWEDVDPAVCSLDEQLKAFVSRHSATFSSIVKGQRSLHHRGETLETLVLLNPSDKSLCDELRNLLMDPAPHKLLVLAGPCLEETGELLLQTGGFSAHHFLQVLGDKEVQDALASAPAAPALTVSCPTFGDWALLGPVPGLQLRLNPPAQLPASEGLRAFLEYVAESLEPPSPFELLEPPAAGGFLRLARPCCYVFPGGLGDAAFFAVNGFTVLVNGGSNPKSSFWKLVRHLDRVDAVLVTHAGADSLPGLNSLLRRKLAEREAAAGPQGQHEERLRRLLSPALGVVFLNAREAASRLRGGEDEAVCARSLLRSLGIAPLPLQRGPQPSCPTVLFEKLGVGRLELFVLHPPPGDPAAPACALLVWQPAAPGDKVVRVLFPGRTPPARLLDGLQRLQHLPCLRRPVVTTHDLEAPSRANSQDSLASRDSARKEPVRGTVGSIANRSTVRREPALATRDQKKDTRSGPTQPTARDTRRSGPGVVNTKPRVSQNGPRAPVLAAPLTAPVAECPGEAENILESERPPAPSPTLSPAQSPPPTAPGNSPERLSLSPLRPEPAPDASPSATTPTLTTPSLPAELGSPHSTEVDESLSVSFEQVLPAGDPGLSLPLRLARRSTSPHDVDLCLVSPCEFSHRKPPPPASPGSSDSSARSQERPPETPPTSVSESLPTLSDSDPVPVADSDDDAGSESAARDPPPTPRVPPPLPDVPGICMVDPEALPPRARQPLNTTNPSRSRKAPARPSSASATPRAATVAAKTKGPAGDRNRPLSARSEPADRPGRVPLTRKPSVPKTVPKMASATRLSSGPSGRPAPLAAGSPVYLDLAYLPGGGAGHLDQNFFLRVRALCYVISGQGQRQEEGLRAVLDALLAGKRQWDLDLQVTLIPTFDSAVMHRWYEETHAQHQALGIRVLGSGSLVSMQDEAFPACKVEF
In the case of B1, in test [7], the binding entry is given as “binds”.
